# Source: PubChem BioAssay AID1671190 (National Center for Advancing Translational Sciences (NCATS), 2021)
# Protein sequences, listed by entry. Tags and fused reporters are not part of them. Lines headed by an entry give the natural chain unless they say otherwise; changes in a name come on top.
# UniProt P18054: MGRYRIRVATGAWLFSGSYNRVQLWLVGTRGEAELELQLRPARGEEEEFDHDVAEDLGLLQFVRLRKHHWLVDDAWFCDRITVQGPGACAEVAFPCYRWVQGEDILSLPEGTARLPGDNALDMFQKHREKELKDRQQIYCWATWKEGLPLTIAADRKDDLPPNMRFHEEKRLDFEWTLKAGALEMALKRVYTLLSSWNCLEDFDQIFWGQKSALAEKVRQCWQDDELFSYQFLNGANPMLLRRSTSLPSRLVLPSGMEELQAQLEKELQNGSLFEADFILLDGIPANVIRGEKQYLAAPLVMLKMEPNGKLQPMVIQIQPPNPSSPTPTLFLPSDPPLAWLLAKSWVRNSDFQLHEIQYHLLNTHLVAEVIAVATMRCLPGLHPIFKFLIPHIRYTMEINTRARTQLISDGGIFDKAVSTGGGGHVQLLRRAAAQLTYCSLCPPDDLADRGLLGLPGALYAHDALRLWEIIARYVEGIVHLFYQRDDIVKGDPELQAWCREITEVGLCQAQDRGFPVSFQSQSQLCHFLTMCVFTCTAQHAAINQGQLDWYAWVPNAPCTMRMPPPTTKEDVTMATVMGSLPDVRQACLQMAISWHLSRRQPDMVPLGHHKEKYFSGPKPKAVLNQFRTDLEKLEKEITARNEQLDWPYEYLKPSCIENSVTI
# Screen size: about 580,000 compounds; about 6,100 (1.1%) were called active. Inconclusive results, whose numbers are uncertain, are shown with a selection of clear calls. Calls follow the shape of the dose curve; as a rule, active = well fitted inhibition curve with a large enough effect; inconclusive = small, poorly fitted or top-dose-only effect, or another doubt; inactive = no such curve, though single readings can be large or run the other way. A potency beside an inconclusive call is a rough fit, not a confirmed value.
# Target: Polyunsaturated fatty acid lipoxygenase ALOX12 (Homo sapiens) (UniProt P18054)
# Experiment: Primary qHTS assay for inhibitors of human arachidonate 12S-lipoxygenase (ALOX12): Round 2
# Details: purified 12hLO, xylenol orange hydroperoxide absorbance; activity change, negative = inhibition: at 108 µM (top of the series) unless noted
# Outline: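 Purified human 12hLO at 150 nM in 25 mM Hepes, 0.01% Triton X-100, pH 7.0, preincubated 15 min at room temperature with compound. Reaction started with 40 uM arachidonic acid, 30 min at room temperature. Hydroperoxide measured by Fe-xylenol orange, 573/405 nm absorbance ratio.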
# % is scaled to controls: 0 for no effect and ±100 for the full control effect; potency is read from the fitted curve at half-maximal effect.
Compound,"activity change, negative = inhibition",Potency
Cc1nc2ccccc2c(=O)n1/N=C/c1ccc(N(C)C)cc1,inactive: 19.3%,
CCCCc1nnc(NC(=O)COc2ccc3c(C)cc(=O)oc3c2)s1,,"inconclusive: 100 µM [inhibitor, single point]"
Cc1ccc2cc(C3C(C#N)=C(N)Oc4c3ccc3cccnc43)c(=O)[nH]c2c1 (centres undefined),,active: 25.1 µM
CC(C)C[C@H](NC(=O)[C@H]1N2C(=O)c3ccccc3C2SC1(C)C)C(=O)N[C@@H](Cc1ccccc1)C(=O)O (some centres undefined),,"inconclusive: 79.4 µM [inhibitor, single point]"
O=C(O)C1=CCCN(CCON=C(c2ccccc2)c2ccccc2)C1,,"inconclusive: 25.1 µM [inhibitor, partial curve, poor fit]"
O=c1[nH]c(CCl)nc2cc(-c3ccc(Cl)cc3)sc12,inactive: 106%,
COc1cc2cc(C)c(SCC(=O)N3CCOCC3)nc2cc1OC,inactive: -1.2%,
Cc1oc2c(c1C(=O)NCCCN1CCCC1=O)CN(Cc1cccc(F)c1)CC2,,"inconclusive: 10 µM [inhibitor, full curve, poor fit]"
CS(=O)(=O)Nc1ccc(-c2ccc3nccn3c2)cc1,,"inconclusive: 7.08 µM [inhibitor, full curve, poor fit]"
CCC1CCCCN1C(=O)CSc1nc(-c2ccc(OC)c(OC)c2)cc(C(F)(F)F)n1 (centres undefined),inactive: -24.5%,
CCN(C(=O)COC(=O)c1cc([N+](=O)[O-])ccc1N1CCOCC1)C1CCCCC1,,"inconclusive: 39.8 µM [inhibitor, partial curve, poor fit]"
O=C(CSc1nc(-c2ccccc2)c(-c2ccccc2)o1)Nc1nncs1,,"inconclusive: 31.6 µM [inhibitor, partial curve, poor fit]"
Cc1ccc2nc(Cc3ccc(N)cc3)oc2c1,inactive: 48.3%,
CC(C)(CO)NCc1c(OCc2ccc(Cl)cc2)ccc2ccccc12,,"inconclusive: 44.7 µM [inhibitor, partial curve, poor fit]"
CN(C)S(=O)(=O)c1ccc(NC(=O)COC(=O)c2n[nH]c3ccccc23)cc1,,"inconclusive: 35.5 µM [inhibitor, partial curve, poor fit]"
O=C(Nc1cc(SCCO)cc([N+](=O)[O-])c1)c1ccco1,inactive: 23.2%,
COc1ccc(OC)c(C2C3CN(C(C)C)CC=C3C(C#N)=C(N)C2(C#N)C#N)c1 (centres undefined),inactive: 0%,
Cc1cc2c(cc1S(=O)(=O)C(C)CC(=O)NCc1ccco1)OCC(=O)N2 (centres undefined),inconclusive: -32.6% [inhibitor],
Nc1nc(-c2ccccn2)nc(N)c1Cc1c(F)cccc1Cl,,"inconclusive: 141 µM [inhibitor, partial curve, poor fit]"
COc1ccccc1N1C(=O)C=C(Sc2nc(C)cc(C)n2)C1=O,,active: 10 µM
O=C(Cc1ccccc1)NC(Nc1ccccc1)C(Cl)(Cl)Cl (centres undefined),,"inconclusive: 89.1 µM [inhibitor, single point]"
Cc1ccc(NC(=O)c2cc(C)nc3ccccc23)c(Br)c1,,"inconclusive: 5.01 µM [inhibitor, full curve, poor fit]"

Compound,"activity change, negative = inhibition",Potency
Cc1c(C)c2cc(Cl)c(O)c(CN3CCCC(C)C3)c2oc1=O (centres undefined),inactive: 0%,
O=C(Cc1ccc(Cl)c(Cl)c1)Nc1cccc(S(=O)(=O)N2CCOCC2)c1,inactive: -10.2%,
CN1CCN(C=NC2=NN(c3cccc(C(F)(F)F)c3)CC2)CC1,,"inconclusive: 112 µM [inhibitor, partial curve, poor fit]"
Cc1c(CCCC(=O)O)sc(N)c1C(=O)c1cccc(C(F)(F)F)c1,,"inconclusive: 39.8 µM [inhibitor, partial curve]"
COc1ccc(CCNc2cc(C)nc(N)n2)cc1OC,inactive: -0.0338%,
COCCNC(=O)c1nc(-c2ccc(Cl)cc2)c2ccccn12,,"inconclusive: 28.2 µM [inhibitor, full curve]"
COc1cc2[nH]c(=S)nc(Nc3ccc(NC(C)=O)cc3)c2cc1OC,inactive: -18.2%,
NC(=O)c1c(NC(=O)CN2CCOCC2)sc2c1CCC2,inactive: -2.32%,
Cc1noc(NS(=O)(=O)c2ccc(NC(=O)C(Cl)(Cl)Cl)cc2)c1C,,"inconclusive: 112 µM [inhibitor, single point]"
COc1ccccc1C1=NN(C(=S)Nc2ccccc2)C(c2ccco2)C1 (centres undefined),,"inconclusive: 5.62 µM [inhibitor, full curve, poor fit]"
COc1cc(/C=C2\SC(=S)N(NC(=O)c3cccnc3)C2=O)ccc1O,,"inconclusive: 89.1 µM [inhibitor, partial curve, poor fit]"
O=C1NCc2ccccc2CC12CCCN2Cc1cccc(OC(F)(F)F)c1 (centres undefined),,"inconclusive: 50.1 µM [inhibitor, partial curve]"
COc1cccc(C(c2c(C)[nH]n(-c3ccccc3)c2=O)c2c(C)[nH]n(-c3ccccc3)c2=O)c1O,,"inconclusive: 28.2 µM [inhibitor, partial curve]"
COc1ccc2c(c1)C(C(Nc1ccccc1)c1ccc(Cl)cc1)C(=O)N2C (centres undefined),,"inconclusive: 126 µM [inhibitor, single point]"
COc1cc(CN2CC[C@H](c3nc4ccccc4o3)C2)cc(OC)c1OC,inactive: 2.68% [at 176 µM],
CC(C)Oc1cccc(C2CC(=O)Nc3cc4c(cc32)OCO4)c1 (centres undefined),,"inconclusive: 89.1 µM [inhibitor, partial curve, poor fit]"
N#Cc1nc(-c2ccc(F)cc2)oc1NCCc1ccccc1,,"inconclusive: 50.1 µM [inhibitor, partial curve, poor fit]"
CC(=O)c1ccc(Nc2ccc3cc(S(=O)(=O)N4CCCC4)ccc3n2)cc1,,"inconclusive: 50.1 µM [inhibitor, partial curve]"
CCCn1c(=O)c2c(C(F)(F)F)cc(-c3cccs3)nc2n(CCC)c1=O,inactive: -9.97%,
Cc1ccccc1-n1cc(CNCc2c(C(=O)N(C)C)nc3ccc(Cl)cn23)cn1,inactive: 21.7%,
CCCS(=O)(=O)N[C@H]1C[C@@H](c2nc(-c3ccc(OC)cc3)no2)N(C)C1,,"inconclusive: 44.7 µM [inhibitor, partial curve, poor fit]"
COC(=O)CNC(=O)N1CCC(N2C(=O)C(OCC3CC3)C23CCCCC3)CC1 (centres undefined),,"inconclusive: 10 µM [inhibitor, partial curve, poor fit]"

# 3 neighbouring records out of the list so far, quoted:
Compound,"activity change, negative = inhibition",Potency
Cc1c(CCCC(=O)O)sc(N)c1C(=O)c1cccc(C(F)(F)F)c1,,"inconclusive: 39.8 µM [inhibitor, partial curve]"
COc1ccc(CCNc2cc(C)nc(N)n2)cc1OC,inactive: -0.0338%,
COCCNC(=O)c1nc(-c2ccc(Cl)cc2)c2ccccn12,,"inconclusive: 28.2 µM [inhibitor, full curve]"
